US7422854B1, “Cholesterol reduction signature” (priority 2002, dated 2008)
The name of at least one read-out is uncertain.

Tested on: male Sprague-Dawley rats
Assay: Cholesterol Lowering Index: total blood cholesterol (clinical chemistry) in treated versus vehicle-treated rats
Format: in vivo, rat
Conditions: vs vehicle
From the text: Compound dosing was based on the acute dose LD50s recorded in published reference or literature sources. […] The MTD (maximum tolerated dose) was then selected as the dose at which the animals […] 5-10% body weight during the 5-day range finding study. […] In addition, the clinical observations must show no or mild clinical signs during the whole of the range-finding study. At the next highest dose, signs and symptoms of adverse effects and exceeding those of the MTD should be seen to occur. Should these criteria not be met, the range-finding study is repeated using a modified dose range.
After determination of the MTD and FED for a compound, each compound was dissolved in a vehicle for administration on day 1 of the study (additional daily doses were stored as frozen aliquots from this initial formulation). […] Animal body weights were determined at 1 day and, where appropriate, at 4 days, before necropsy, and clinical observations were made on a daily basis. […]
Tissue harvest and handling: After the allocated treatment time, the tissues from the animals were harvested. […] The following blood constituents were measured: Blood Urea Nitrogen (BUN), Creatinine (CRE), Glucose (GLU), Alanine Transaminase (ALT), Aspartate Aminotrans-ferase (AST), Alkaline Phosphatase (ALP), Total Bilirubin (TBI), Sodium (SOD), Potassium (POT), Chloride (CHL), Phosphorus (PHO), Total Protein (TPR), Albumin (ALB), Cholesterol (CHO), Creatine Phosphokinase (CPK), Lactate Dehydrogenase (LDH), Carbon Dioxide (CO2), Uric Acid (UA), and Lipase. […] The parameters were measured using a Baker 9000 blood cell analysis instrument according to the manufactures instructions. The following blood constituents were measured: Leukocyte count (WBC), Differential Leukocyte counts, Erythrocyte count (RBC), Hemoglobin concentration (HGB), Hematocrit (HCT), Mean Corpuscular Volume (MCV), Mean Corpuscular Hemoglobin (MCH), Mean Corpuscular Hemoglobin Concentration (MCC), Thrombocyte Count (PLC). […]

SMILES	Chol index (fold reduction) (dose 1175, time 7 days)	Chol index (fold reduction) (dose 2000, time 3 days)	Chol index (fold reduction) (dose 2000, time 5 days)
ClC(Cl)(Cl)Cl [CARBON TETRACHLORIDE]	2.97	–	–
C[C@]12CCC(=O)C=C1CC[C@@H]1[C@@H]2CC[C@@]2(C)[C@H]1CC[C@]2(C)O [17-METHYLTESTOSTERONE, (17β)-17-hydroxy-17-methylandrost-4-en-3-one]	–	4.94	2.43
